Article PMC6530537 (Chemical Science, 2019)

Assay: general procedure: Fmoc solid-phase peptide synthesis
Conditions: whole synthesis, Analytical HPLC, Agilent 1260 Infinity, Supelcosil ABZ+PLUS column, 0.05% TFA water/MeCN, UV 220 and 254 nm

Substance | final HPLC purity [%]
Ac-GCRLYGFKIHGCG-NH2 | 99
Ac-CRLYGFKIHGC-NH2 (also: cyclic (positions not given here)) | 84
Ac-MSGDEMIFDPTMS(K)8P-NH2 | 90
Ac-CRLYGFIHGC-NH | 90
PEPTIDE1{[ac].G.C.R.L.Y.G.F.K.I.H.G.C.G.[am]}$PEPTIDE1,PEPTIDE1,3:R3-13:R3$$$V2.0 | 87

HELM strings list residues between dots; [ac] is acetyl, [am] amide, other brackets name non-standard units.
